This is an account of results in publication PMC6773851, “Identification of protein-protein and ribonucleoprotein complexes containing Hfq” (Scientific Reports, 2019).

By UniProt entry, the sequences of proteins in these tests, tags left out.
UniProt P0A6X3: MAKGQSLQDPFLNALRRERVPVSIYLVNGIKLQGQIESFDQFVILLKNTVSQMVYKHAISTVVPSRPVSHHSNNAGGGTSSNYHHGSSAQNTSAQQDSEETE

Test [1] has as its target HfqTT (TAP-tagged Hfq) (E. coli) (UniProt P0A6X3). Kind of test: affinity purification with mass spectrometry; TAP-tag: HfqTT (or the TAP-tag peptide as control) as bait in extracts of IBhfq95Δhfq, exponential and stationary phase; IgG Sepharose, TEV cleavage, calmodulin beads; half of each sample treated with 0.1 µg/µl RNase A for 30 min at 37 °C before the calmodulin beads; an interaction called RNA dependent when the number of peptides fell by more than 30% after RNase A.

Test [2] has the same target. Kind of test: condition: only after RNase A treatment (0.1 µg/µl, 30 min, 37 °C); affinity purification with mass spectrometry; TAP-tag: HfqTT (or the TAP-tag peptide as control) as bait in extracts of IBhfq95Δhfq, exponential and stationary phase; IgG Sepharose, TEV cleavage, calmodulin beads; half of each sample treated with 0.1 µg/µl RNase A for 30 min at 37 °C before the calmodulin beads; an interaction called RNA dependent when the number of peptides fell by more than 30% after RNase A.

No constants are given. Whether binding was seen depends on the method and setting. In cells and extracts the contact can be indirect. Here binding means that the protein was enriched with, or labelled near, the bait; the list need not be complete. For some assays here: No binding means not detected with the bait.

B1: Poly(A)polymerase, PAP (purified) (natural protein, E. coli, UniProt P0ABF1 11-465, looked up)
chain: KVLSREESEAEQAVARPQVTVIPREQHAISRKDISENALKVMYRLNKAGYEAWLVGGGVRDLLLGKKPKDFDVTTNATPEQVRKLFRNCRLVGRRFRLAHVMFGPEIIEVATFRGHHEGNVSDRTTSQRGQNGMLLRDNIFGSIEEDAQRRDFTINSLYYSVADFTVRDYVGGMKDLKDGVIRLIGNPETRYREDPVRMLRAVRFAAKLGMRISPETAEPIPRLATLLNDIPPARLFEESLKLLQAGYGYETYKLLCEYHLFQPLFPTITRYFTENGDSPMERIIEQVLKNTDTRIHNDMRVNPAFLFAAMFWYPLLETAQKIAQESGLTYHDAFALAMNDVLDEACRSLAIPKRLTTLTRDIWQLQLRMSRRQGKRAWKLLEHPKFRAAYDLLALRAEVERNAELQRLVKWWGEFQVSAPPDQKGMLNELDEEPSPRRRTRRPRKRAPRREGTA
notes: Poly(A) polymerase I, E. coli
As to B1, the binding result is recorded as “binds” in test [1] and “no binding” in test [2].
